Results are given in words; binding and its absence hold for the method and conditions named. Binding seen in cells or lysates may run through a third protein. Some entries that bind do so weakly or less than the wild type.
Biological target: T1, UHRF1 (Ubiquitin-like, containing PHD and RING Finger domains 1), endogenous in T24 (human (endogenous in T24)) (UniProt Q96T88)
T1 sequence: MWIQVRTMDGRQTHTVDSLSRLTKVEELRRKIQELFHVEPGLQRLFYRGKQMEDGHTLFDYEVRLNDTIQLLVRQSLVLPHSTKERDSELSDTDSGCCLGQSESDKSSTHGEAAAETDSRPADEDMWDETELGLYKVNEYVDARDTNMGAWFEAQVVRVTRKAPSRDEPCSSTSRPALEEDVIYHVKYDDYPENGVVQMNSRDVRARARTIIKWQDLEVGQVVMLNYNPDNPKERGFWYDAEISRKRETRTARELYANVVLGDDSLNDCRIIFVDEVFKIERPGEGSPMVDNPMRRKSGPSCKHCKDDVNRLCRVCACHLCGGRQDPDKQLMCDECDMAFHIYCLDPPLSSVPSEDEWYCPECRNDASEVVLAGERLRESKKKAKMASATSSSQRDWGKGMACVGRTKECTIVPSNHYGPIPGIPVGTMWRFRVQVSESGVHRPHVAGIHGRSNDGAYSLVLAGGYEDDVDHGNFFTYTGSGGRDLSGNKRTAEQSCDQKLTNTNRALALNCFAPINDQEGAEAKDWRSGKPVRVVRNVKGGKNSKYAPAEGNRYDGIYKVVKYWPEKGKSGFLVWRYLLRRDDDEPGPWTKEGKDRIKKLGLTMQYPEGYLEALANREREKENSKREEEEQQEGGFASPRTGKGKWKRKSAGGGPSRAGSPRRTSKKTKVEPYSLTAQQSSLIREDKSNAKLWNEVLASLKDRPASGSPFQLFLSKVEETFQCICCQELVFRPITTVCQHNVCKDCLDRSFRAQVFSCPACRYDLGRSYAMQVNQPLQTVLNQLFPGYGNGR
Assay: co-IP; endogenous proteins, T24 cell lysate in 200 mM KCl, 20 mM Tris-HCl pH 7.9, 5 mM MgCl2, 10% glycerol, 0.2 mM EDTA, 0.1% NP-40; antibodies or control IgG overnight at 4 °C; western blot; both directions

Chains of the proteins cited; added tags and fusions are not shown.
UniProt Q8N6T7: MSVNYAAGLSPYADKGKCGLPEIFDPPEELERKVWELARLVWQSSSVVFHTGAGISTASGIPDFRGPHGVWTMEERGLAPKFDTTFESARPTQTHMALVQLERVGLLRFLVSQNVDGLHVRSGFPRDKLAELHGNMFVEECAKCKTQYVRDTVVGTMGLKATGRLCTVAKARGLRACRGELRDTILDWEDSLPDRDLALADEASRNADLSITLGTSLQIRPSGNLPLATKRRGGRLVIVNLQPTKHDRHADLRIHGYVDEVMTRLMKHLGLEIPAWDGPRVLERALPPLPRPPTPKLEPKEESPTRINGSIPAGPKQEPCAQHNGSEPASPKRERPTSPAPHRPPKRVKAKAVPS

Sirtuin-6 (SIRT6), endogenous (from UniProt Q8N6T7 1-355)
binding: binds

— paper PMC11663349
